Results on one substance are retold here after patent US20070178575A1, “Identification Of A Nitrilase From B. Japonicum By Rational Genome Mining And Methods Of Use” (priority 2005, published 2007).

This series can be described thus: Effects of temperature, pH and organic solvents on nitrilase activity. In kind it is biochemical. As for the experimental part:
For the determination of temperature effect, a mixture of nitrilase (0.5 mg) with benzyl cyanide (50 mM) in 1.0 ml of potassium phosphate buffer (100 mM, pH 7.1) was incubated at 25° C., 30° C., 37° C. and 45° C., respectively. Aliquots (100 μl) were taken after 1, 2, 4, and 16 hrs intervals, and acidified with 10 μl of 1M HC1. The formed phenylacetic acid was extracted into 200 μl of tert-butyl methyl ether, dried over anhydrous sodium sulfate, and quantified by GC analysis after converting to methyl ester with diazomethane.
The pH effect was studied using the following buffer: sodium citrate buffer (pH 4.91 and 5.44), potassium phosphate buffer (pH 6.07, 6.52, 7.10, 7.58, 7.98 and 8.49) and sodium bicarbonate buffer (pH 8.98). A mixture of nitrilase (0.5 mg) with benzyl cyanide (50 mM) in 1.0 ml of the respective buffer (100 mM) was incubated at 30° C. […] The formed phenylacetic acid was extracted into 200 μl of tert-butyl methyl ether, dried over anhydrous sodium sulfate, and quantified by GC analysis after converting to methyl ester with diazomethane.
The organic solvent effects were evaluated with dimethyl sulfoxide (DMSO), tert-butyl methyl ether, hexane, toluene and butyl acetate. […] The formed phenylacetic acid was extracted into 1 ml of tert-butyl methyl ether, dried over anhydrous sodium sulfate, and quantified by GC analysis after converting to methyl ester with diazomethane.

In the case of “nitrilase bll6402: nitrilase (mandelonitrile hydrolase) from Bradyrhizobium japonicum USDA110, amino acid SEQ ID NO: 2, expressed in E. coli”, the “time the nitrilase was active at 45° C.” value (45° C., pH 7.1, phenylacetonitrile) is recorded as “at least 2 hours”. The temperature optimum (phenylacetonitrile 50 mM, pH 7.1) is not below 45 °C.
